PubChem BioAssay AID720703 | Peter MacCallum Cancer Centre, 2013
This is an unselected part of 714 reagents tested. 50 of all reagents (7%) count as active. 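Chosen pools sit at both extremes, so both low and high scores count as candidates; some pools appear more than once.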 Unmarked entries are inactive.

- Purpose: 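Kinase knock-down screen for links between AT1R and EGFR signalling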 (primary screen)
- Cells: immortalised, SV40-transformed mammary epithelial cells from human, with stable expression of tagged AT1R
- Knock-down reagent: siRNA pool against human genes, 40 nM siRNA pool per well
- Timing: 72 h from transfection to lysis and read-out
- Conditions: angiotensin II stimulation (dose and duration not given); EGFR inhibitor AG1478 also listed
- Read-out: 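ERK1/2 phosphorylation corrected for confluency, given as a robust z-score, mean over two replicate plates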
- Reading the numbers: phospho-ERK z-score: higher = more ERK phosphorylation after angiotensin II, relative to plate
- Hit rule: 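Pools were ordered by robust z-score and 50 top-ranked pools, whether they raised or lowered the signal, were chosen for secondary testing; no numeric threshold was reported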
- Calls: active = picked for secondary screen; inactive = not picked

| gene | phospho-ERK z-score, replicate mean |
| --- | --- |
| STK32A (serine/threonine kinase 32A) | -0.7 |
| PRKD3 (protein kinase D3) | 0.69 |
| MAPK1 (mitogen-activated protein kinase 1) | 3.21 (active) |
| FGFR3 (fibroblast growth factor receptor 3) | -1.08 (active) |
| PI4K2B (phosphatidylinositol 4-kinase type 2 beta) | -0.62 |
| CHKB (choline kinase beta) | -0.91 |
| PRKAB2 (protein kinase AMP-activated non-catalytic subunit beta 2) | 2.44 |
| TEX14 (testis expressed 14, intercellular bridge forming factor) | -0.48 |
| MUSK (muscle associated receptor tyrosine kinase) | -0.01 |
| CRKL (CRK like proto-oncogene, adaptor protein) | 4.2 (active) |
| FN3K (fructosamine 3 kinase) | 0.48 |
| PHKB (phosphorylase kinase regulatory subunit beta) | -0.26 |
| CDK8 (cyclin dependent kinase 8) | 1.14 |
| PI4K2A (phosphatidylinositol 4-kinase type 2 alpha) | 0.26 |
| HIPK4 (homeodomain interacting protein kinase 4) | -0.46 |
| PIK3CD | 0.5 |
| CSF1R (colony stimulating factor 1 receptor) | -0.7 |

Records listed above called active:
| gene | phospho-ERK z-score, replicate mean |
| --- | --- |
| MAPK1 (mitogen-activated protein kinase 1) | 3.21 (active) |
| FGFR3 (fibroblast growth factor receptor 3) | -1.08 (active) |
| CRKL (CRK like proto-oncogene, adaptor protein) | 4.2 (active) |

Next results:
| gene | phospho-ERK z-score, replicate mean |
| --- | --- |
| PIK3C2B | 1.97 |
| ABL1 (ABL proto-oncogene 1, non-receptor tyrosine kinase) | 0.36 |
| PCK1 (phosphoenolpyruvate carboxykinase 1) | 0.07 |
| MARK1 (microtubule affinity regulating kinase 1) | 0.11 |
| CDK12 (cyclin dependent kinase 12) | -0.73 |
| AKT1 (AKT serine/threonine kinase 1) | -1.28 (active) |
| CDKN1B (cyclin dependent kinase inhibitor 1B) | -0.42 |
| CERK (ceramide kinase) | -0.38 |
| ACVR1C (activin A receptor type 1C) | -0.86 |
| PHKG2 (phosphorylase kinase catalytic subunit gamma 2) | -0.04 |
| RIPK1 (receptor interacting serine/threonine kinase 1) | 0.64 |
| IP6K3 (inositol hexakisphosphate kinase 3) | -0.31 |
| DAPK2 (death associated protein kinase 2) | 0.77 |
| PKMYT1 (protein kinase, membrane associated tyrosine/threonine 1) | -0.8 |
| TSKS (testis specific serine kinase substrate) | 0.79 |
| N4BP2 (NEDD4 binding protein 2) | 0.01 |
| PAK6 (p21 (RAC1) activated kinase 6) | 0.4 |
| SRC (SRC proto-oncogene, non-receptor tyrosine kinase) | -0.95 |
| MINK1 (misshapen like kinase 1) | 0.32 |
| PNCK (pregnancy up-regulated nonubiquitous CaM kinase) | -0.23 |
| NEK10 (NIMA related kinase 10) | -1.21 |
| PRKCD (protein kinase C delta) | -1.21 (active) |
| KCNH2 (potassium voltage-gated channel subfamily H member 2) | -0.94 |
| STK35 (serine/threonine kinase 35) | -0.35 |
| PBK (PDZ binding kinase) | -0.22 |
| PAPSS2 (3'-phosphoadenosine 5'-phosphosulfate synthase 2) | 0.74 |
| RPS6KB1 (ribosomal protein S6 kinase B1) | 1.16 |
| GK2 (glycerol kinase 2) | -0.82 |
